Assay results: PubChem BioAssay AID504467 (National Center for Advancing Translational Sciences (NCATS), 2011)
Out of some 330,000 compounds screened, about 7,700 (2.3%) were called active. Inconclusive means that the source gave no clear call. Such entries were picked first, then a sample of the others. The call rests on the fitted dose curve; in most records, active means well fitted inhibition curve with a large enough effect; inconclusive means small, poorly fitted or top-dose-only effect, or effect the other way; inactive means flat fitted curve, though single readings scatter. A potency beside an inconclusive call is a rough fit, not a confirmed value.

Assay: qHTS screen for small molecules that inhibit ELG1-dependent DNA repair in human embryonic kidney (HEK293T) cells expressing luciferase-tagged ELG1; further: nearly all actives have a fitted effect of over 55% in size
Conditions: HEK293T ELG1-luciferase reporter, luminescence, 16 h, DNA damage induced by 5-fluorouridine; series mostly up to 46.1 µM
Summary of the method: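 Cells (2,000 per well) received 5-fluorouridine plus test compound or DMSO and were incubated 16 hr at 37 °C, 5% CO2. Luciferase activity was read by luminescence 30 min after ONE-Glo addition; signal suppression marked inhibition of damage-induced ELG1 function.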
Potency means the concentration at half of the fitted maximal effect.

Row | SMILES | Potency
1 | CNC(=O)Oc1ccc(-c2cn3cc(C)ccc3n2)cc1 | inconclusive: 0.291 µM [activator, partial curve, poor fit]
2 | CCN(CC)c1ccc(N=Cc2c(O)n(Cc3ccccc3)c(=O)[nH]c2=O)cc1 | inconclusive: 18.4 µM [activator, single point]
3 | Nc1c(C(=O)NCc2ccco2)c2nc3ccccc3nc2n1Cc1ccc(F)cc1 | inconclusive: 13 µM [inhibitor, single point]
4 | O=P(Oc1ccccc1)(Oc1ccccc1)C(O)c1ccc(Cl)cc1 (stereo unspecified) | inactive
5 | O=C(COc1ccc2ccccc2c1)N1CCN(C2CCN(Cc3ccccc3)CC2)CC1 | inactive
6 | COc1ccc(OC)c(-n2c(O)c(C=NCc3ccc4c(c3)OCO4)c(=O)[nH]c2=O)c1 | inactive
7 | c1ccc(Cc2nn3c(Cn4cnc5ccccc54)nnc3s2)cc1 | inconclusive: 20.6 µM [inhibitor, single point]
8 | CCCC(=O)c1ccc(CP(=O)(OCC)OCC)o1 | inactive
9 | CN(CCOc1ccc(C=C2C(=O)NC(=O)NC2=O)cc1)c1ccccn1 | inconclusive: 20.6 µM [activator, single point]
10 | COc1ccc(NC(=O)C2C3CCC(O3)C2C(=O)O)c(OC)c1 (stereo unspecified) | inconclusive: 11.6 µM [activator, partial curve, poor fit]
11 | CCSc1nnc([C@@H](N)Cc2ccccc2)o1 | inconclusive: 20.6 µM [activator, single point]
12 | O=c1[nH]c(=S)n(C2CC2)c(O)c1C=Nc1cccc(C(F)(F)F)c1 | inconclusive: 29.1 µM [activator, single point]
13 | CCCCNC(=O)NC(C(N)=O)P(=O)(OCC)OCC (stereo unspecified) | inconclusive: 29.1 µM [inhibitor, single point]
14 | Cc1cc(N2CCOCC2)nc2ccc(NC(=O)CCC(=O)N3CCC4(CC3)OCCO4)cc12 | inconclusive: 13 µM [activator, single point]
15 | CN(C)C1C(=O)C(C(N)=O)=C(O)C2(O)C(=O)C3=C(O)c4c(O)cccc4C(C)(O)C3C(O)C12 (stereo unspecified) | inconclusive: 1.16 µM [activator, single point]
16 | COc1ccc(/C=C/C(=O)c2c(O)n(CCC3=CCCCC3)c(=O)[nH]c2=O)cc1OC | inactive
17 | O=C(C1CC(=O)N(C2CCCCCCC2)C1)N1CCC2(CC1)OCCO2 (stereo unspecified) | inconclusive: 5.8 µM [activator, partial curve, poor fit]
18 | COc1ccc2c(c1)/C(=C/c1cnc[nH]1)C(=O)N2 | inconclusive: 29.1 µM [inhibitor, single point]
19 | Cc1cc(C=C2C(=O)N(C)C(=S)N(C)C2=O)c(C)n1C1CCCC1 | inactive
20 | COC(=O)C1=C(c2ccc(Cl)c(C(F)(F)F)c2)C[C@@H]2CC[C@H]1N2C(=O)NCCOc1ccccc1 | inconclusive: 18.3 µM [inhibitor, single point]
21 | CC[C@]1(C(=O)OC)[C@H]2C(=O)N(Cc3ccccc3)C(=O)[C@H]2[C@H]2CN=C(SCc3ccc(C(=O)OC)cc3)N21 | inconclusive: 29.1 µM [inhibitor, partial curve, poor fit]

3 of these compounds, set out differently:

| Row | SMILES | Potency |
| --- | --- | --- |
| 8 | CCCC(=O)c1ccc(CP(=O)(OCC)OCC)o1 | inactive |
| 14 | Cc1cc(N2CCOCC2)nc2ccc(NC(=O)CCC(=O)N3CCC4(CC3)OCCO4)cc12 | inconclusive: 13 µM [activator, single point] |
| 20 | COC(=O)C1=C(c2ccc(Cl)c(C(F)(F)F)c2)C[C@@H]2CC[C@H]1N2C(=O)NCCOc1ccccc1 | inconclusive: 18.3 µM [inhibitor, single point] |

Further entries follow:

Row | SMILES | Potency
22 | Cc1oc(-c2ccccc2Cl)nc1CN1C(=O)CN=C(c2ccccc2)c2ccccc21 | inconclusive: 10.3 µM [inhibitor, partial curve, poor fit]
23 | COC(=O)C1=C(c2ccc(F)cc2F)C[C@@H]2CC[C@H]1N2C(=O)N1CCC(O)(c2ccc(Cl)cc2)CC1 | inconclusive: 29.1 µM [inhibitor, single point]
24 | CC(C)N1C(=O)NC(=O)C2(Cc3cc([N+](=O)[O-])ccc3N(C)C2c2ccccc2)C1=O (stereo unspecified) | inconclusive: 25.9 µM [inhibitor, partial curve, poor fit]
25 | O=C1NS(=O)c2cc([N+](=O)[O-])cc([N+](=O)[O-])c21 (stereo unspecified) | inactive
26 | O=C1NC(=O)N(Cc2ccc(F)cc2)C(=O)/C1=C/c1cccs1 | inconclusive: 20.6 µM [activator, partial curve]
27 | CC1=CC(=O)C2=C(C)C[C@H](O)[C@@H]3[C@H](OC(=O)[C@H]3C)[C@@H]12 | inactive
28 | COc1cccc(N=Nc2c(O)[nH]c(=S)[nH]c2=O)c1 | inconclusive: 29.1 µM [activator, single point]
29 | COC(=O)C1=C(c2ccc(C(C)=O)cc2)C[C@@H]2CC[C@H]1N2C(=O)NCc1ccc(F)cc1 | inactive
30 | COCCOC(=O)c1c(N)n(Cc2ccc(OC)cc2)c2nc3ccccc3nc12 | active: 14.6 µM
31 | Cc1cccc(-n2c(/C=C/c3ccc([N+](=O)[O-])o3)nc3ccccc3c2=O)c1 | inconclusive: 7.31 µM [inhibitor, partial curve]
32 | N#CCCn1cc(C(=O)Nc2ccc([N+](=O)[O-])cc2)c(-c2ccccc2)n1 | inactive
33 | O=C(NCc1cccnc1)Nc1ccc([N+](=O)[O-])cc1 | inactive
34 | C=C1C(=O)O[C@H]2C[C@@H](C)[C@@H]3C=CC(=O)[C@@]3(C)C[C@H]12 | inconclusive: 32.6 µM [inhibitor, single point]
35 | Cc1cccc(N2C(=O)NC(=O)/C(=C\c3cccn3-c3ccc(Cl)cc3)C2=O)c1 | inconclusive: 29.1 µM [inhibitor, single point]
36 | Cc1c(C)c2ccc(OCC(=O)N3C[C@H]4C[C@@H](C3)c3cccc(=O)n3C4)cc2oc1=O | inconclusive: 4.61 µM [activator, single point]
37 | O=c1c2ccccc2nc(/C=C/c2ccccc2F)n1-c1ccccc1O | inconclusive: 29.1 µM [inhibitor, single point]
38 | [O-]/[N+](=C/c1cccnc1)c1ccc(Br)cc1 | inconclusive: 16.4 µM [activator, single point]
39 | COC(=O)C1=C(c2ccc(OC(F)(F)F)cc2)C[C@@H]2CC[C@H]1N2C(=O)NC(C)C | inactive
40 | CCc1ccc(NC(=O)C(C)OC(=O)c2c(C)nn(Cc3ccccc3)c2Cl)cc1 (stereo unspecified) | inconclusive: 20.6 µM [inhibitor, partial curve]
41 | Cc1cccn2c(=O)c3c(nc12)N1CCC(Cc2ccccc2)CC1C1(C3)C(=O)N(C)C(=O)N(C)C1=O (stereo unspecified) | inconclusive: 25.9 µM [inhibitor, single point]
